A short description of the data set: physchem.
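Note: lipophilicity determined by reversed-phase HPLC.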

In the case of `COc1cccc(-c2cccc(C3(C4CCN(C(C)=O)CC4)N=C(C)C(N)=N3)c2)c1` (stereo unspecified), the logD (in general, the decadic logarithm of the distribution of all forms, ionised or not, between an organic phase and buffer at a given pH) was found to be 2.1.

The record behind these values is ChEMBL document CHEMBL2177046, “New aminoimidazoles as β-secretase (BACE-1) inhibitors showing amyloid-β (Aβ) lowering in brain” (J Med Chem, 2012).
